# Results taken from the supplement of paper PMC4635364.
# Where a name gives a salt, the structure may show the parent alone. The list shows a part of the results. Single values are uncertain here, since repeats match poorly.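 Cells: ReNCell VM human fetal ventral-midbrain neural progenitors, differentiated mitogen-free. Blinded raters compared doublecortin-stained (early neurons) or tyrosine hydroxylase-stained (dopaminergic neurons) images with untreated wells, where 0 means no change. After repeats and both raters were averaged, compounds scoring 2 or above became hits for retesting.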
# Columns and labels:
# [1] = tested on: ReNCell VM; assay: neuronal differentiation score (DCX+ cell fraction vs untreated, manual image score) (score (-3 to 3)); higher = more neuronal differentiation; details: 2 uM, 2 weeks
# [2] = tested on: ReNCell VM; assay: dopaminergic neuron differentiation score (TH+ cell fraction vs untreated, manual image score) (score (0 to 3)); higher = more TH+ dopaminergic neuron differentiation; details: 2 uM, 4 weeks, BDNF 10 ng/ml + GDNF 10 ng/ml
SMILES,neuronal differentiation score ([1]; library: Phytochemical),dopaminergic neuron differentiation score ([2]; library: Phytochemical),neuronal differentiation score ([1]; library: Spectrum),dopaminergic neuron differentiation score ([2]; library: Spectrum)
CN1C[C@H](C(=O)N[C@]2(C)O[C@@]3(O)[C@@H]4CCCN4C(=O)[C@H](Cc4ccccc4)N3C2=O)C=C2c3cccc4[nH]cc(c34)C[C@H]21 [Ergotamine tartrate],inactive: 0,inactive: 0,–,–
COC(=O)NC(=S)Nc1ccccc1NC(=S)NC(=O)OC,–,–,inactive: 0,inactive: 0
"COc1ccc2c(c1OC)CN1CCc3cc4c(cc3C1C2)OCO4 (stereo not drawn) [(d,l)-Tetrahydroberberine]",inactive: 0,inactive: 0,–,–
CC1(C)C(C=C(Cl)Cl)C1C(=O)OCc1cccc(Oc2ccccc2)c1 (stereo not drawn),–,–,inactive: 1,inactive: 0
CN1CCCCC1c1ccc(-c2cccnc2)nc1 (stereo not drawn),–,–,inactive: 0,inactive: 0
CN1[C@@H]2CCC[C@H]1CC(=O)C2 [Pseudopelletierine hydrochloride],inactive: 0,inactive: 0,–,–
CO[C@]12C[C@@H](COC(=O)c3cncc(Br)c3)CN(C)[C@@H]1Cc1cn(C)c3cccc2c13,–,–,inactive: 0,inactive: 0
COc1ccc(C(CN(C)C)C2(O)CCCCC2)cc1 (stereo not drawn),–,–,inactive: 0,inactive: 0
C[C@@H]1CC[C@@]2(OC1)O[C@H]1[C@@H](O)[C@H]3[C@@H]4CC[C@H]5C[C@@H](O[C@@H]6O[C@H](CO)[C@H](O[C@@H]7O[C@H](CO)[C@@H](O)[C@H](O[C@@H]8OC[C@@H](O)[C@H](O)[C@H]8O)[C@H]7O[C@@H]7O[C@H](CO)[C@H](O)[C@H](O[C@@H]8O[C@H](CO)[C@@H](O)[C@H](O)[C@H]8O)[C@H]7O)[C@H](O)[C@H]6O)[C@H](O)C[C@]5(C)[C@H]4CC[C@]3(C)[C@H]1[C@@H]2C,–,–,inactive: 0,inactive: 0

# Single records, from the list above. Order of values: neuronal differentiation score ([1]; library: Phytochemical)	dopaminergic neuron differentiation score ([2]; library: Phytochemical)	neuronal differentiation score ([1]; library: Spectrum)	dopaminergic neuron differentiation score ([2]; library: Spectrum)
# `CN1[C@@H]2CCC[C@H]1CC(=O)C2` [Pseudopelletierine hydrochloride] reads inactive: 0	inactive: 0	–	–
# `CN1CCCCC1c1ccc(-c2cccnc2)nc1` (stereo not drawn) reads –	–	inactive: 0	inactive: 0
